No constants are given. Whether binding was seen depends on the method and setting. Some binding calls cover weakened binding; strength is not graded here.

Here are results for one molecule from publication PMC7824358, “The Influence of the Mixed DPC:SDS Micelle on the Structure and Oligomerization Process of the Human Cystatin C” (Membranes, 2020).

The target in this assay is human cystatin C (hCC) wild-type (human) (UniProt P01034). In words: SEC; analytical gel filtration, Superdex 75 PC 3.2/30, eluted with PBS; hCC WT monomer 30 μM in PBS incubated 24 h at 37 °C in DPC solution; monomer to dimer; both purified. In general terms: Size exclusion chromatography separates by hydrodynamic size, large species first.

B1: human cystatin C (hCC) wild-type (natural protein, UniProt P01034 27-146, looked up)
chain: SSPGKPPRLVGGPMDASVEEEGVRRALDFAVGEYNKASNDMYHSRALQVVRARKQIVAGVNYFLDVELGRTTCTKTQPNLDNCPFHDQPHLKRKAFCSFQIYAVPWQGTMTLSKSTCQDA
notes: human cystatin C, expressed from the pHD313 vector behind the E. coli OmpA signal peptide; Used as a monomer sample and as a dimer sample made by incubation at pH 4.0 and separated by SEC; also called hCC WT; WT
Consider B1, for which the binding entry was “binds weakly”.
